Publication PMC5550010

Biological target: Smarcc1a, the zebrafish homolog of human SMARCC1 (zebrafish (endogenous in zebrafish larvae and embryos))
Experiment: co-IP; lysates of 24 hpf zebrafish embryos injected with zebrafish bbs6, human BBS6 or human BBS6^(H84Y; A242S) mRNA; IP with SMARCC1 antibody (Abcam ab172638) overnight at 4°C, Protein A/G agarose beads; western blot probed for myc

Row | binding | Binder
1 | binds | human BBS6 expressed in zebrafish embryos (protein, UniProt Q9NPJ1 1-570) MSRLEAKKPSLCKSEPLTTERVRTTLSVLKRIVTSCYGPSGRLKQLHNGFGGYVCTTSQSSALLSHLLVTHPILKILTASIQNHVSSFSDCGLFTAILCCNLIENVQRLGLTPTTVIRLNKHLLSLCISYLKSETCGCRIPVDFSSTQILLCLVRSILTSKPACMLTRKETEHVSALILRAFLLTIPENAEGHIILGKSLIVPLKGQRVIDSTVLPGILIEMSEVQLMRLLPIKKSTALKVALFCTTLSGDTSDTGEGTVVVSYGVSLENAVLDQLLNLGRQLISDHVDLVLCQKVIHPSLKQFLNMHRIIAIDRIGVTLMEPLTKMTGTQPIGSLGSICPNSYGSVKDVCTAKFGSKHFFHLIPNEATICSLLLCNRNDTAWDELKLTCQTALHVLQLTLKEPWALLGGGCTETHLAAYIRHKTHNDPESILKDDECTQTELQLIAEAFCSALESVVGSLEHDGGEILTDMKYGHLWSVQADSPCVANWPDLLSQCGCGLYNSQEELNWSFLRSTRRPFVPQSCLPHEAVGSASNLTLDCLTAKLSGLQVAVETANLILDLSYVIEDKN
2 | binds | human BBS6^(H84Y; A242S), the McKusick-Kaufman syndrome allele, expressed in zebrafish embryos (protein, UniProt Q9NPJ1 1-570) MSRLEAKKPSLCKSEPLTTERVRTTLSVLKRIVTSCYGPSGRLKQLHNGFGGYVCTTSQSSALLSHLLVTHPILKILTASIQNYVSSFSDCGLFTAILCCNLIENVQRLGLTPTTVIRLNKHLLSLCISYLKSETCGCRIPVDFSSTQILLCLVRSILTSKPACMLTRKETEHVSALILRAFLLTIPENAEGHIILGKSLIVPLKGQRVIDSTVLPGILIEMSEVQLMRLLPIKKSTALKVSLFCTTLSGDTSDTGEGTVVVSYGVSLENAVLDQLLNLGRQLISDHVDLVLCQKVIHPSLKQFLNMHRIIAIDRIGVTLMEPLTKMTGTQPIGSLGSICPNSYGSVKDVCTAKFGSKHFFHLIPNEATICSLLLCNRNDTAWDELKLTCQTALHVLQLTLKEPWALLGGGCTETHLAAYIRHKTHNDPESILKDDECTQTELQLIAEAFCSALESVVGSLEHDGGEILTDMKYGHLWSVQADSPCVANWPDLLSQCGCGLYNSQEELNWSFLRSTRRPFVPQSCLPHEAVGSASNLTLDCLTAKLSGLQVAVETANLILDLSYVIEDKN

No constants are given. Whether binding was seen depends on the method and setting. In cells and extracts the contact can be indirect. Binding calls can cover weak binding; strength is not graded here.
